Results from paper doi:10.1101/2022.09.13.507805.
Like-named read-outs stand apart in the source and are kept apart here. No constants are given. Whether binding was seen depends on the method and setting. For some assays here: Binding seen in cells or lysates may run through a third protein. Some results given as binding are weak or reduced against the parent protein; the word gives no strength. Tags and fused reporters may be left off the sequences shown.

Amino acid sequences for entries named in this document (tags omitted).
UniProt Q96704, whole entry: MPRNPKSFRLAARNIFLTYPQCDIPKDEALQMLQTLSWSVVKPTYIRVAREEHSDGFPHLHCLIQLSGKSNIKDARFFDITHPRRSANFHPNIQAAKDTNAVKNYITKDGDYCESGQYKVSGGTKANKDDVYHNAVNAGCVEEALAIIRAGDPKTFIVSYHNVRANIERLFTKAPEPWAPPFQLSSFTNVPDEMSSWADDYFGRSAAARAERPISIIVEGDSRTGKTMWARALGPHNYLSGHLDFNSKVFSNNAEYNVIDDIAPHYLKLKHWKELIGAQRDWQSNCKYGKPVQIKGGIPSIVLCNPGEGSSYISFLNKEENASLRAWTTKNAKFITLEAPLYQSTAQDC
UniProt Q9M7Q7, whole entry: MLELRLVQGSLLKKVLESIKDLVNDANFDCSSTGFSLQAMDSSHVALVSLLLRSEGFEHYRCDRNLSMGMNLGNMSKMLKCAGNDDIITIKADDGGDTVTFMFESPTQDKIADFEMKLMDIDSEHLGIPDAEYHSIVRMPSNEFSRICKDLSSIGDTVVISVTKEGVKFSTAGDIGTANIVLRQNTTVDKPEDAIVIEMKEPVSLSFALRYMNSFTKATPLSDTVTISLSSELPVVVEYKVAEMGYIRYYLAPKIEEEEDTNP

What was measured:
[1] = target: T1, FM-RAD51 (Flag-4Myc-tagged RAD51) (Arabidopsis thaliana) (UniProt P94102); assay: co-IP
T1 sequence: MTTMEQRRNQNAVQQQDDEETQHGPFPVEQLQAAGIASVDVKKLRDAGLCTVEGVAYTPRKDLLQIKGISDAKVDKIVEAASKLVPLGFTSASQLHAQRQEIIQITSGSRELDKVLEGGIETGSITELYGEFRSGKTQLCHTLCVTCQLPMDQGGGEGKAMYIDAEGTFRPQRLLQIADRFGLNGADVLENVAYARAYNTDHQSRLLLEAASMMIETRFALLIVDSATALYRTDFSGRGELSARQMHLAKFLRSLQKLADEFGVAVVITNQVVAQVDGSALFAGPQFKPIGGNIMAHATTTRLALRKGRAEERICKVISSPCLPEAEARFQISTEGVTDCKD

[2] = target: T2, RPA1A (replication protein A 1A, AT2G06510), yeast two-hybrid fusion (Arabidopsis thaliana) (UniProt Q9SKI4); assay: two-hybrid
T2 sequence: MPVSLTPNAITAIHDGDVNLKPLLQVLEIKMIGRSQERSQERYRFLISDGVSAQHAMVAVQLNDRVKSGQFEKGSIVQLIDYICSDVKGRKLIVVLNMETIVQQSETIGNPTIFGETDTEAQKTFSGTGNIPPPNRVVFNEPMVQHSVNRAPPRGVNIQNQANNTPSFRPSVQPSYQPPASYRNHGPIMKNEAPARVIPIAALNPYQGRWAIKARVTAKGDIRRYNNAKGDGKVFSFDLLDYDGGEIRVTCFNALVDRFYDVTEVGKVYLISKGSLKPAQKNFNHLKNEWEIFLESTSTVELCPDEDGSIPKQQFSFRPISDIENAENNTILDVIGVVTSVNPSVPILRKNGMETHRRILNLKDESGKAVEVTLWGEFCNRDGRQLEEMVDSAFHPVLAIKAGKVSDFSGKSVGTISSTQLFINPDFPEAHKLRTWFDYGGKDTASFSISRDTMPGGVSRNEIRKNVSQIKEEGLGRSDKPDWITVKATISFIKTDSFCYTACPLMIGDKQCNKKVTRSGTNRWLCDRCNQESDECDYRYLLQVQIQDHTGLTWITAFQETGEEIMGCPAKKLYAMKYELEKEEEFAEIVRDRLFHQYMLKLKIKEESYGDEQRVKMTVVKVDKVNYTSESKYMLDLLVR

[3] = target: T3, RAD51 (AT5G20850), yeast two-hybrid fusion (Arabidopsis thaliana) (UniProt P94102); assay: two-hybrid
T3 sequence: T1 sequence

[4] = target: Rep (encoded by CaLCuV), yeast two-hybrid bait (Cabbage Leaf Curl Virus (CaLCuV)) (UniProt Q96704); assay: two-hybrid
[5] = target: FM-Rep (Flag-4Myc-tagged Rep of CaLCuV) (Cabbage Leaf Curl Virus (CaLCuV)) (UniProt Q96704); assay: co-IP
[6] = target: T1, FM-RAD51 (Flag-4Myc-tagged RAD51) (Arabidopsis thaliana); assay: co-IP; remark: listed apart in the source
[7] = target: T4, HA-BRCA1 (HA3-tagged BRCA1) (Arabidopsis thaliana) (UniProt Q8RXD4); assay: co-IP
T4 sequence: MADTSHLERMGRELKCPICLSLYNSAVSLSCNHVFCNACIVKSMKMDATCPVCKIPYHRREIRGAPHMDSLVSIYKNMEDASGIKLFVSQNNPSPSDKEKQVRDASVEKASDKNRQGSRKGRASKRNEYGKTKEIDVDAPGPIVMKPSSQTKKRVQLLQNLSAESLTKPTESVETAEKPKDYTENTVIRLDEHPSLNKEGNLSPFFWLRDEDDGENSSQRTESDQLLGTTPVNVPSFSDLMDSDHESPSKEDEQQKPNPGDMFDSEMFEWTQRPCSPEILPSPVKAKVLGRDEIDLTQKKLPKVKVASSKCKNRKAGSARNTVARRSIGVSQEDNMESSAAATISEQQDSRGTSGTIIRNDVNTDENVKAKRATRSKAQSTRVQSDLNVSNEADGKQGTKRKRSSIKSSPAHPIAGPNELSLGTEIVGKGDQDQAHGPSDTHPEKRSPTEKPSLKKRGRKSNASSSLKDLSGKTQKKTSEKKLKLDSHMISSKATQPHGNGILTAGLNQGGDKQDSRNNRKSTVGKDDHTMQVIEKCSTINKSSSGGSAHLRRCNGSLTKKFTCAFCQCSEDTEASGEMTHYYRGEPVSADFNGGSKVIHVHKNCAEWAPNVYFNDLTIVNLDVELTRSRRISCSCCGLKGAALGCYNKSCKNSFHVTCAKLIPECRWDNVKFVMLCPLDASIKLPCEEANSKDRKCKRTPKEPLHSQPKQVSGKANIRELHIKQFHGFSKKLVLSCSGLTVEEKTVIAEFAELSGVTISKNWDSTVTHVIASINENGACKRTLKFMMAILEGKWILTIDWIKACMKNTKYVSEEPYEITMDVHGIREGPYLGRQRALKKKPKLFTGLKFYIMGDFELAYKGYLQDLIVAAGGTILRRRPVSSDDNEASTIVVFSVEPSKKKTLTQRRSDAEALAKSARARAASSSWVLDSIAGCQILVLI

“HA-Rep (HA-tagged Rep of CaLCuV) (from UniProt Q96704 1-349)” was tested, and the binding [1] was “binds”.

For “BRCA1 (AT4G21070), yeast two-hybrid fusion (from UniProt Q8RXD4 1-941)”, the binding [2] was “no binding” and the binding [3] was “binds”.

With “PCNA1 (AT1G07370), yeast two-hybrid fusion (from UniProt Q9M7Q7 1-263)” the binding [4] was “binds”.

B1: RPA1A (replication protein A 1A, AT2G06510), yeast two-hybrid fusion (protein, UniProt Q9SKI4 1-640)
chain: T2 sequence
B1 was tested, and the binding [4] was “binds”.

B2: HA-RPA1A (HA3-tagged RPA1A) (protein, UniProt Q9SKI4 1-640)
chain: T2 sequence
With B2 the binding [5] was “binds” and the binding [6] was “binds”.

B3: B1 type cyclin dependent protein kinase CYCB1;1 (AT4G37490), yeast two-hybrid fusion (protein, UniProt P30183 1-428)
chain: MMTSRSIVPQQSTDDVVVVDGKNVAKGRNRQVLGDIGNVVRGNYPKNNEPEKINHRPRTRSQNPTLLVEDNLKKPVVKRNAVPKPKKVAGKPKVVDVIEISSDSDEELGLVAAREKKATKKKATTYTSVLTARSKAACGLEKKQKEKIVDIDSADVENDLAAVEYVEDIYSFYKSVESEWRPRDYMASQPDINEKMRLILVEWLIDVHVRFELNPETFYLTVNILDRFLSVKPVPRKELQLVGLSALLMSAKYEEIWPPQVEDLVDIADHAYSHKQILVMEKTILSTLEWYLTVPTHYVFLARFIKASIADEKMENMVHYLAELGVMHYDTMIMFSPSMVAASAIYAARSSLRQVPIWTSTLKHHTGYSETQLMDCAKLLAYQQWKQQEEGSESSTKGALRKKYSKDERFAVALIPPAKALLTGTESA
In the case of B3, the binding [2] is reported as “no binding” and the binding [3] is reported as “binds”.

B4: FM-RAD51 (Flag-4Myc-tagged RAD51) (protein, UniProt P94102 1-342)
chain: T1 sequence
B4 was tested, and the binding [7] was “binds”.

B5: RAD51 (AT5G20850), yeast two-hybrid fusion (protein, UniProt P94102 1-342)
chain: T1 sequence
With B5 the binding [4] was “binds”.
